These are yes or no findings as the source states them, for the method shown. Binding seen in cells or lysates may run through a third protein. A result given as binding can be weak or reduced; the word gives no strength.
Biological target: EMC4 (human (endogenous in Flp-In T-REx 293)) (UniProt Q5J8M3)
Test: cross-linking; 35S-labelled single-cysteine CLCN3 TMD-pair nascent chains translated in the presence of EMC3(216C) ER membranes; isolated membranes treated with 250 uM BMH on ice for 10 min; total products and non-denaturing FLAG immunoprecipitation of EMC (1% TX-100, 200 mM NaCl)

By UniProt entry, the sequences of proteins in these tests, tags left out.
UniProt Q5J8M3: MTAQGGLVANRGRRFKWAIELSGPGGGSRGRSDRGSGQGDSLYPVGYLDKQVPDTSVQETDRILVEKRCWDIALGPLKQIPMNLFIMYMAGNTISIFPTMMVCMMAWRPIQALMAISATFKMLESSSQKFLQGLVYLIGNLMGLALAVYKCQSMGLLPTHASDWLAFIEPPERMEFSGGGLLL

| Substance | binding |
| --- | --- |
| CLCN3 TMD-pair single-cysteine variant, cysteine at a loop-proximal position of TMD1 (from UniProt P51790-1) (domain or fragment) | binds weakly |
| CLCN3 TMD-pair single-cysteine variant, cysteine at position 187 in the translocated loop (from UniProt P51790-1) (domain or fragment) | binds weakly |
| CLCN3 TMD-pair single-cysteine variant, cysteine at a loop-proximal position of TMD2 (from UniProt P51790-1) (domain or fragment) | binds weakly |
| CLCN3 TMD-pair single-cysteine variant, cysteine at position 172 in the translocated loop (from UniProt P51790-1) (domain or fragment) | binds weakly |
